Data reported in publication PMC12758332.
Results are given in words; binding and its absence hold for the method and conditions named. Binding seen in cells or lysates may run through a third protein. A yes stands for co-enrichment or nearness to the bait. Other partners may have been found.

Sequences of proteins named here, by UniProt entry; tags and fusion partners are left off.
UniProt O14929: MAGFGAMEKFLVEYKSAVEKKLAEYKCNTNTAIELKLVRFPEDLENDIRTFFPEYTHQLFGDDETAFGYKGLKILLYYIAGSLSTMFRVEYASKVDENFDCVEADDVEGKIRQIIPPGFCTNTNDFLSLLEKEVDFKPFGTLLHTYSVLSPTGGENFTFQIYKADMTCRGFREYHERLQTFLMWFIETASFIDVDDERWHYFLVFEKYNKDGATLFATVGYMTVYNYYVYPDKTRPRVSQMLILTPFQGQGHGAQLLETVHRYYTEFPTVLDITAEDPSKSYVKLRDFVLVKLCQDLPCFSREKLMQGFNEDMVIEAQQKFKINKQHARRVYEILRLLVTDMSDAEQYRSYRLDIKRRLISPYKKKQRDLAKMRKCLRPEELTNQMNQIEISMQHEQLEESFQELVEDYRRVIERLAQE
UniProt Q09472: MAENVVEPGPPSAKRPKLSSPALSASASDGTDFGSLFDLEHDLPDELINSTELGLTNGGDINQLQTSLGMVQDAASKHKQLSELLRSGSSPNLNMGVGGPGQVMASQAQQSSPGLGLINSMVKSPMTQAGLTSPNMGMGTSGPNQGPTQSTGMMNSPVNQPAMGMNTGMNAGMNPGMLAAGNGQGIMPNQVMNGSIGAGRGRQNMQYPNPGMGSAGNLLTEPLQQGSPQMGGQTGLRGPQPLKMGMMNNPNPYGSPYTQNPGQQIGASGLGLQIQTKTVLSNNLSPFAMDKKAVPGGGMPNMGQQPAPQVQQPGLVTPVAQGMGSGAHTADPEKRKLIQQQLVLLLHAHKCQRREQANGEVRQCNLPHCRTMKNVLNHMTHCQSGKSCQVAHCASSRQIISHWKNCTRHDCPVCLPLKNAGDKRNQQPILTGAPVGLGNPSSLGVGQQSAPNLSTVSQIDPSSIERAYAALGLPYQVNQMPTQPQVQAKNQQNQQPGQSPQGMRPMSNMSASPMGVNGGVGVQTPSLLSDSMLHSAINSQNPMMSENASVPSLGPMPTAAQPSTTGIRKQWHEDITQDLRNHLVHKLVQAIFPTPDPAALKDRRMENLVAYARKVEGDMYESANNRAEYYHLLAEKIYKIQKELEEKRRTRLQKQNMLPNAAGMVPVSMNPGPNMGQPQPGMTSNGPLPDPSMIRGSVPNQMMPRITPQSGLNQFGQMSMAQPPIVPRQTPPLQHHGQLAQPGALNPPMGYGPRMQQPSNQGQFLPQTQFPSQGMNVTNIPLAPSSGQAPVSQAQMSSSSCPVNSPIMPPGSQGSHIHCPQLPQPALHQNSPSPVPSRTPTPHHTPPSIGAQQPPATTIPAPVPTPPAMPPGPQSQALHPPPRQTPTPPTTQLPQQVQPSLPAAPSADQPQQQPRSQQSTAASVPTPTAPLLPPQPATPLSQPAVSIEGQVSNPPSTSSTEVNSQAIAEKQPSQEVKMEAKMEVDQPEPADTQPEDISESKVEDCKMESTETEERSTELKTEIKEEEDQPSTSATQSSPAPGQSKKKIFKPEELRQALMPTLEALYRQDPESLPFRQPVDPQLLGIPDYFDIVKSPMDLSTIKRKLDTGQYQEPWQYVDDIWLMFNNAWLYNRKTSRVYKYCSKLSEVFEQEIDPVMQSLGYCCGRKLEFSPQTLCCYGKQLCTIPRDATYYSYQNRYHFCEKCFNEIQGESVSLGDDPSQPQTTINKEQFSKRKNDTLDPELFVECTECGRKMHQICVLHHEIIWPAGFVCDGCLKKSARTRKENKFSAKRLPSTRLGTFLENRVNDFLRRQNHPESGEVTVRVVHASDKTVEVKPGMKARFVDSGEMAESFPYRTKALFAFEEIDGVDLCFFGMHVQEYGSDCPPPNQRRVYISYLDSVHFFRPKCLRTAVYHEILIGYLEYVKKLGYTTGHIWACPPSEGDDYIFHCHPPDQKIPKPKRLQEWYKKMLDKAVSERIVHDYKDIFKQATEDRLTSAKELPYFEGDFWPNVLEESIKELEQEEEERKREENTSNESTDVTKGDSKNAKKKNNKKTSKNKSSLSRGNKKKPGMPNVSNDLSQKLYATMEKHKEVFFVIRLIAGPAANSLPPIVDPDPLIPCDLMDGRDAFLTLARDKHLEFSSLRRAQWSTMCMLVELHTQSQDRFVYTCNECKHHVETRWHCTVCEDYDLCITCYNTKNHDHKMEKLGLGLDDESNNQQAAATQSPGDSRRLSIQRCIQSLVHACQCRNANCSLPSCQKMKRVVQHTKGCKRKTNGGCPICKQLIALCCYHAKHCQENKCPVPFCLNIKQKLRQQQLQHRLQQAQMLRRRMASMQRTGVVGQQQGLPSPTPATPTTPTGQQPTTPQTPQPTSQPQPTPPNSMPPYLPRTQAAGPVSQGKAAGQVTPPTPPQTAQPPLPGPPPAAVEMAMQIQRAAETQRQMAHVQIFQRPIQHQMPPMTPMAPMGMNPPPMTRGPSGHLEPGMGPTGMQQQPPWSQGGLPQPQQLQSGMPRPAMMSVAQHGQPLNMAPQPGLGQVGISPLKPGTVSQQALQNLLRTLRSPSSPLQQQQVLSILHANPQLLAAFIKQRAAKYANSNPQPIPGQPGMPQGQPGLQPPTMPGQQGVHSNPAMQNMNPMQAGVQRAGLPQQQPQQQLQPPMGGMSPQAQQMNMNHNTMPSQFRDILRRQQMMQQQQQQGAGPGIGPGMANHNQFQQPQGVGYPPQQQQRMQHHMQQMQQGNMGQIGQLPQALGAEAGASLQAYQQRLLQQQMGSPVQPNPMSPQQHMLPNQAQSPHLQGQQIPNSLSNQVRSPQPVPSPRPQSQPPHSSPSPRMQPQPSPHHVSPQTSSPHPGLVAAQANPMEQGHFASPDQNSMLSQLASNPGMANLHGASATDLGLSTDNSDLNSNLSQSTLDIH
UniProt Q8WYB5: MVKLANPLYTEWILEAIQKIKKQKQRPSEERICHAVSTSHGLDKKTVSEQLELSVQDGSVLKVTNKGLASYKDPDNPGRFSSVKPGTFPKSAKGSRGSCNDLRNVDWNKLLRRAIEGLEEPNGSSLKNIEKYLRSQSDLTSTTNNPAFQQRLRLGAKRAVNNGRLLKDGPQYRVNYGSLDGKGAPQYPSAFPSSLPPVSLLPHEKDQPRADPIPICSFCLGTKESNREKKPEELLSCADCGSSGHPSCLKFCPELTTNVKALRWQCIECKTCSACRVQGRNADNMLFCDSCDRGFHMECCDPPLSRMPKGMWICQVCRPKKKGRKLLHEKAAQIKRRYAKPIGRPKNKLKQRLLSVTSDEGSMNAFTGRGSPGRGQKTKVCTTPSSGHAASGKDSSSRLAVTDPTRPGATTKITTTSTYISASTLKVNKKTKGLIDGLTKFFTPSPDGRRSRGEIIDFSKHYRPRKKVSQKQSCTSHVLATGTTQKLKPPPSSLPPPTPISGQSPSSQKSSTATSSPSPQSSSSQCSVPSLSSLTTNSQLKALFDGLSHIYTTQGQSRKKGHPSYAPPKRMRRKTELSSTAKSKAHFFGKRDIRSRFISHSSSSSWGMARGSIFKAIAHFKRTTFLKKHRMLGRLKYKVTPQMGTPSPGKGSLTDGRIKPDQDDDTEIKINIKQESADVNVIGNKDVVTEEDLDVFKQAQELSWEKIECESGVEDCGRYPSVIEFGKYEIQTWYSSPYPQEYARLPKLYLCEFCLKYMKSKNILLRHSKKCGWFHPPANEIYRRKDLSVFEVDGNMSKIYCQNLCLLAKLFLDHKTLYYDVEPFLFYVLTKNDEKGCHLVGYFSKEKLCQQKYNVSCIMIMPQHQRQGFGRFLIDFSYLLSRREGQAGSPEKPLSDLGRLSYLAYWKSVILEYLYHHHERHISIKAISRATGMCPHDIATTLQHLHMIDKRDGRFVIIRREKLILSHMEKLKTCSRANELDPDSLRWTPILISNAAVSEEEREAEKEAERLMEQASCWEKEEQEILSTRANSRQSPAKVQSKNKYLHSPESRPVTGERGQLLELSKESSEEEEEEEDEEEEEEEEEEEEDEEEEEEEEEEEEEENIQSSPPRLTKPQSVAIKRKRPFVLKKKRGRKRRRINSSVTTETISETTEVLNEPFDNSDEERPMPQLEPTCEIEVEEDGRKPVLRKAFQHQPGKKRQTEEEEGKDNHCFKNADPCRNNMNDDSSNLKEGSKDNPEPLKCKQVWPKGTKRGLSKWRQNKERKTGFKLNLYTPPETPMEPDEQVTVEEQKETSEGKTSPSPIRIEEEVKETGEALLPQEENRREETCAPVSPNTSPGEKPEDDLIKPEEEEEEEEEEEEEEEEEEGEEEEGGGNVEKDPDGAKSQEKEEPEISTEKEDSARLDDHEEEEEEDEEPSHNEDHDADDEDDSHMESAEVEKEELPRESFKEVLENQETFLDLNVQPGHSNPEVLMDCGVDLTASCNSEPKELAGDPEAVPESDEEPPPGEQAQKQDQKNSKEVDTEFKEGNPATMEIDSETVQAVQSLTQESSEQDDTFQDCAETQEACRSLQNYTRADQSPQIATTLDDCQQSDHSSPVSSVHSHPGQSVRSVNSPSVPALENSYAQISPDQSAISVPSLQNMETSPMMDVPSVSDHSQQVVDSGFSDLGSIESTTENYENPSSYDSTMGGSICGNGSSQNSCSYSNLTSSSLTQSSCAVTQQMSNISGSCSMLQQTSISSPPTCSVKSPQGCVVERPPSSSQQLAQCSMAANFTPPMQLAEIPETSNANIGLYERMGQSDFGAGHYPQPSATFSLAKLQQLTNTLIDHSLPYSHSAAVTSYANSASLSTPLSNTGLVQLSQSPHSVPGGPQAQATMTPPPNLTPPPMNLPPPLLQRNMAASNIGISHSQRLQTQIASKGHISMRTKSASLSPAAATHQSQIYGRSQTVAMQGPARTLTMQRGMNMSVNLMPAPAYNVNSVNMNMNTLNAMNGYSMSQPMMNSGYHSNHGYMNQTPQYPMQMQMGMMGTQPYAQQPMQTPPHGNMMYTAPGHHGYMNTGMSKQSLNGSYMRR

target: T1, Zinc finger MIZ domain-containing protein 2 (ZMIZ2) (human (endogenous in LNCaP and 22RV1)) (UniProt Q8NF64); experiment: affinity purification with mass spectrometry; IP-MS of ZMIZ2; cells and conditions not given
T1 sequence: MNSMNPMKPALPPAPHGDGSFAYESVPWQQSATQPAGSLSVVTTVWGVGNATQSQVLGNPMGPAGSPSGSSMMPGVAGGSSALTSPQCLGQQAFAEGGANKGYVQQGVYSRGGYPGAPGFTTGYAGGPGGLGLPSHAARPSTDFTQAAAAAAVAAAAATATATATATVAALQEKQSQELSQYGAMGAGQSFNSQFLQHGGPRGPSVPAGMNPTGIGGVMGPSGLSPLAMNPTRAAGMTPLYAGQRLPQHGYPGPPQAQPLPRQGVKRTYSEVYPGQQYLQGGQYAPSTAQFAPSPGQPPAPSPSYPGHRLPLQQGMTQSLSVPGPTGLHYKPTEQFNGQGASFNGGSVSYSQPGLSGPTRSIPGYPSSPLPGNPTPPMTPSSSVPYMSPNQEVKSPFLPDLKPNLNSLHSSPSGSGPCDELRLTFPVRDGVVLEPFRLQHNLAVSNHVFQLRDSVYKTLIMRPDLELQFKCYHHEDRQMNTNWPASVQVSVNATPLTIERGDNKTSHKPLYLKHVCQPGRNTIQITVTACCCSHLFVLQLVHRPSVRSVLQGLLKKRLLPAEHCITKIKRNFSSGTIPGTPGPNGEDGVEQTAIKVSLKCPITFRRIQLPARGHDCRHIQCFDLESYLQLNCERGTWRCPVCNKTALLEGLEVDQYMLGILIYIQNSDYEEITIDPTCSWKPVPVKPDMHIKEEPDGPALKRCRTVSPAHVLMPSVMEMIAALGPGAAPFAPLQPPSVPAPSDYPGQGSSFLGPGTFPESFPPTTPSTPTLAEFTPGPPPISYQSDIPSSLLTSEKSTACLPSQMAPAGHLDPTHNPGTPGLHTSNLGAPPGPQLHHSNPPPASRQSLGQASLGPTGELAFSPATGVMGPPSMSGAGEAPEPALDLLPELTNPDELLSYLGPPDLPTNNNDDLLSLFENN

binding, binds:
HAT1 (from UniProt O14929 1-419) (enzyme), EP300 (from UniProt Q09472 1-2414) (enzyme), KAT6B (from UniProt Q8WYB5 1-2073) (enzyme)
